This assay has as its target FUS (fused in sarcoma/translocated in liposarcoma), endogenous in embryonic mouse ovary (mouse (endogenous in embryonic mouse ovary)) (UniProt P56959). Put plainly: co-IP; endogenous proteins in embryonic mouse ovary lysates; antibody on Protein A/G magnetic beads, 1 h at room temperature; immunoblotting; IgG as negative control; also lysates of cultured ovaries transfected with control or AD-Hfm1i (FUS with FBXW11 increased, FUS with MDM2 not changed significantly). (In general: Immunoblotting shows a protein as a band on a membrane.)

Protein sequences, listed by entry. Tags and fused reporters are not part of them.
UniProt P56959: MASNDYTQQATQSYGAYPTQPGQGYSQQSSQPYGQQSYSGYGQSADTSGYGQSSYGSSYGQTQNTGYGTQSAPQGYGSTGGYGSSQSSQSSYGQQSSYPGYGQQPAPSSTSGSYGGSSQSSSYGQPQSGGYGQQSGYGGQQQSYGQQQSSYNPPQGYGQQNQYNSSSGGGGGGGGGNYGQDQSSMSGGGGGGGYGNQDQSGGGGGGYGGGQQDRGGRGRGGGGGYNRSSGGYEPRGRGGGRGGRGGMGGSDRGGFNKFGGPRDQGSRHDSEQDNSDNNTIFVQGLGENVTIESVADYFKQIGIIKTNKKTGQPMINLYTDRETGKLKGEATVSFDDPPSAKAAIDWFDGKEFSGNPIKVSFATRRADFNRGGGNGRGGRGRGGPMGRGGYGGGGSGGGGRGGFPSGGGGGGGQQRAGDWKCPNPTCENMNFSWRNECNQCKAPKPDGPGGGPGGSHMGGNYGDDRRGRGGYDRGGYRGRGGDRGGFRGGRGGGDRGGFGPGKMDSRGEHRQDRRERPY

No constants are given. Whether binding was seen depends on the method and setting. Binding seen in cells or lysates may run through a third protein. Some results given as binding are weak or reduced against the parent protein; the word gives no strength.

B1: Helicase for meiosis 1 (HFM1), endogenous in embryonic mouse ovary (protein, UniProt D3Z4R1 1-1434)
chain: MPKSDDCFFSMDNLFFSSPDETENFPVKEKSLDWFLPPAPLISEIPDIQELEEEIESYKLLGKGKMPRMLTSNLKIINEDTNCISPTQKIHFSYNVHEQDYLNLGGSNNNDMSHVAGKLMYGSSQKYKNHMGAKSPSARSSPGDTKLHDVAEDRQGTSAFKKRLSRTCDSEHDCDYADGSLNLSSHISPVKLTQTKISKENAWTCSNSKQKRQYSTNKFKANDAFSASGIGKDIFKAPSFPAASQPHDIQGITPNGLGSLKAVTEIPAKFRNIFKEFPYFNYIQSKAFDDLLYTDRNFVICAPTGSGKTVVFELAITRLLMEVPLPWLNMKIVYMAPIKALCSQRFDDWKEKFGPVGLNCKELTGDTVMDDLFEIQHANIIITTPEKWDSVTRKWRDNSFIQLVRLFLIDEVHVIKDENRGPTLEVVVSRMKTVQSLSRDLESASPVPVRFVAVSATIPNAEDIAEWLSDGERPAVCLKMDESHRPVKLQKVVLGFPCSSSQTEFKFDLALNYKVYSVIRTYSDQKPTLVFCSTRKGVQQAASVLVKDAKFIISVEQKLRLQKSAYSIRDSKLKDTLVYGVGYHHAGMELSDRKLVEGLFTSGDLPVLFTTSTLAMGMNMPAHLVVIKSTMHYSGGVFEEYSETDILQMIGRAGRPQFDTTATAVIMTRLSTREKYVQMLACNDTVESSLHRHLIEHLNAEIVLHTITDVNIALDWIRSTMLYIRALKNPSHYGFSSGLNKDGIEAKLQELCLKNLKDLSSLDLIKMDEDVNFKPTEAGRLMAWYYITFETVKKFCAISGKETLLDLISMISSCNEFLDVQLRISEKRILNTLNKDPNRITIRFPMAERIKTREMKVNCLIQAQLGCIPIQDFALTQDTVKIFRNGSRIARWLSDFVAAQEKKFAVLLNSVILTKCFKCKLWENSKHVSKQLDKIGISLSNTMVNAGLTSFKKIEEANARELELILNRHPPFGTQIKEAVAHLPKYELEVEQIARYSDIKAEILVTIILRNFEQLQTKRTAPDFHYATLIIGDADNQVVFKHKIMDSVLLKSGNWVKKIDVKRALISEDLSINLISSDYVGLDIHQKFTVFYFGPRKFVNETAMERSSETDISHSDYSGRATATGSSKGMATCKKPGNRECHHHCKNKHACGHDCCKIGVAQKPEVKESAMSSYLSDLKSRDAVSSLPLAKRLKIQMNKSQNVDLKEFGFTPRPSLSSISRSEYLNTPELSILEQRNQHEIYGKVQQGPSEYRDKEVLGVNLELGNEVWDDFDDESLIEVMSLSADAEKMAASGFGDTRDSSLGGSKLPFQKSSSRFQRDNSNSFASSPGKPDAYLRDCSRSSFGLSSVAEIPQRAENASLANLQERRPLTLSPVIERMCFAHSKKTPQSPKFKEVDIFIGNSGSKKEIDLSKYYPDDAAEEMKALLGIFNGIF
In the case of B1, the binding entry is listed as “binds”.

B2: FBXW11, endogenous in embryonic mouse ovary (protein, UniProt Q5SRY7 1-542)
chain: MEPDSVIEDKTIELMCSVPRSLWLGCANLVESMCALSCLQSMPSVRCLQISNGTSSVIVSRKRPSEGNYQKEKDLCIKYFDQWSESDQVEFVEHLISRMCHYQHGHINSYLKPMLQRDFITALPEQGLDHIAENILSYLDARSLCAAELVCKEWQRVISEGMLWKKLIERMVRTDPLWKGLSERRGWDQYLFKNRPTDGPPNSFYRSLYPKIIQDIETIESNWRCGRHNLQRIQCRSENSKGVYCLQYDDDKIISGLRDNSIKIWDKSSLECLKVLTGHTGSVLCLQYDERVIVTGSSDSTVRVWDVNTGEVLNTLIHHNEAVLHLRFSNGLMVTCSKDRSIAVWDMASATDITLRRVLVGHRAAVNVVDFDDKYIVSASGDRTIKVWSTSTCEFVRTLNGHKRGIACLQYRDRLVVSGSSDNTIRLWDIECGACLRVLEGHEELVRCIRFDNKRIVSGAYDGKIKVWDLQAALDPRAPASTLCLRTLVEHSGRVFRLQFDEFQIISSSHDDTILIWDFLNVPPSAQNETRSPSRTYTYISR
On to B2, for which the binding result is given as “binds”.

Source of the values: article PMC11140966.
